Repeats are few or missing, and single values can be far off.
Compound: [O-][N+](C(C1=C(C(O)=C2)NC(C(C=C3)=CC=C3Cl)C4C1C=CC4)=C2Cl)=O
Experiment: melting temperature shift (compound 7 minus DMSO); higher = compound stabilises the protein
Settings: 10 µM
Method: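 Thermal proteome profiling (TMT mass spectrometry) in intact DAOY medulloblastoma cells or DAOY lysates treated with 10 µM compound 7 or DMSO, heated at 10 temperatures from 40.5 to 73.8 °C for 3 min. Melting curves were fitted with the Bioconductor TPP package, and the melting point difference between compound and vehicle is reported per protein (single curve per condition).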

Chains of the proteins cited; added tags and fusions are not shown. Lines headed by an entry give the natural chain unless they say otherwise; changes in a name come on top.
UniProt Q6P2C8: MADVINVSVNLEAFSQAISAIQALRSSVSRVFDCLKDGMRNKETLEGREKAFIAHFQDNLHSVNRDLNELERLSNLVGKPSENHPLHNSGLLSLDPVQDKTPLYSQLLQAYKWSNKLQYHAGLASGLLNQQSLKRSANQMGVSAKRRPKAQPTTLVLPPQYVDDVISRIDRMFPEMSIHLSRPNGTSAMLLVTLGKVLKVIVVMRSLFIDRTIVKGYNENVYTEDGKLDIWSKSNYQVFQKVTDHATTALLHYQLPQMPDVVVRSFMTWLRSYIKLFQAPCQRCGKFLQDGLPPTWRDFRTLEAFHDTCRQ
UniProt Q14669: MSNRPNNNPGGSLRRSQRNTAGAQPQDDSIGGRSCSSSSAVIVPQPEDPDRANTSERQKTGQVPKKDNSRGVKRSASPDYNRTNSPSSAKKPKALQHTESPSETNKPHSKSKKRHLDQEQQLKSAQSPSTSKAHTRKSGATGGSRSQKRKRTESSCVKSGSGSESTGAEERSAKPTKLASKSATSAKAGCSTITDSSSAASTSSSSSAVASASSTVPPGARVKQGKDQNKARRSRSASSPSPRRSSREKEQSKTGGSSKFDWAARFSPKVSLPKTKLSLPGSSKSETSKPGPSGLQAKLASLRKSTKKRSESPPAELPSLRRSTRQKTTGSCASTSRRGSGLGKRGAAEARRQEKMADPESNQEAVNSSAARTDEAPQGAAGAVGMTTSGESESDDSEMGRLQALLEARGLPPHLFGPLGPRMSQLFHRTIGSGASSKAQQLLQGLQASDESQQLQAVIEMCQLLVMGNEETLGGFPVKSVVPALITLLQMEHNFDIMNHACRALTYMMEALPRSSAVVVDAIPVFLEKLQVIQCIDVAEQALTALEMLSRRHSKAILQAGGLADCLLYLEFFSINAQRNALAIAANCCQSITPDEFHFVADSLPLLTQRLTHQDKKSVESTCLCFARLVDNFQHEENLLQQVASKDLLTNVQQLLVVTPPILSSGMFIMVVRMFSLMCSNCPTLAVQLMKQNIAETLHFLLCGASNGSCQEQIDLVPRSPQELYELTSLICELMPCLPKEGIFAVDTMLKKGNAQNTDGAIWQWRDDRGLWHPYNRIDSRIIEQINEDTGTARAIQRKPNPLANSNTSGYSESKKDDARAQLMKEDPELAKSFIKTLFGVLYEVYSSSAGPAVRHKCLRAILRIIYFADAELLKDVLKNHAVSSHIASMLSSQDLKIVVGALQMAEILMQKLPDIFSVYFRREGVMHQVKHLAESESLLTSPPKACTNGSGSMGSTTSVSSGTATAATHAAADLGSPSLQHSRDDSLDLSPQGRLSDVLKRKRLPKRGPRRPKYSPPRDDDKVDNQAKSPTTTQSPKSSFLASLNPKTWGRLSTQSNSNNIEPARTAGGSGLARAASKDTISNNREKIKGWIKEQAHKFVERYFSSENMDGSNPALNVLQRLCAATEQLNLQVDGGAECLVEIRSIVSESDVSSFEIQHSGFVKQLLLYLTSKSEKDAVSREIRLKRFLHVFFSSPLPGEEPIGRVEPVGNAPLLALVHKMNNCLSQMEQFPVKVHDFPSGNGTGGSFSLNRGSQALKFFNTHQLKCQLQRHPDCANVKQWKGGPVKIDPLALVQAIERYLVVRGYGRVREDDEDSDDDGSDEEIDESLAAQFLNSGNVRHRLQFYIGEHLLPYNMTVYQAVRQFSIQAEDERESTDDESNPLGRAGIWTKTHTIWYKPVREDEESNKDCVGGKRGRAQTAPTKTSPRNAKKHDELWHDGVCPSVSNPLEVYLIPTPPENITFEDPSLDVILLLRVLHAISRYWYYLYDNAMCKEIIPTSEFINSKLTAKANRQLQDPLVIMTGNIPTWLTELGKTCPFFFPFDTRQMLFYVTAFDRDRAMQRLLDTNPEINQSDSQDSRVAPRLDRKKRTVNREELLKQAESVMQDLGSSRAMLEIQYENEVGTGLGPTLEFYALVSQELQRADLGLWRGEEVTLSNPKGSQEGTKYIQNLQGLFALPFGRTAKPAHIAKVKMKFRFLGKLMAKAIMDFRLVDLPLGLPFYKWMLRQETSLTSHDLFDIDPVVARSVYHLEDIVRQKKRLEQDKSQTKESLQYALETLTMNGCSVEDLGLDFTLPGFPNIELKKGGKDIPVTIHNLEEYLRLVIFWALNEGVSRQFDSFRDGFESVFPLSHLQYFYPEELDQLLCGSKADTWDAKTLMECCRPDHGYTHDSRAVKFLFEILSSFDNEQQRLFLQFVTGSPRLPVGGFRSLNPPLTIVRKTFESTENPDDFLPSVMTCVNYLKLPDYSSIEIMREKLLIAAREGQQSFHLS
UniProt Q76FK4: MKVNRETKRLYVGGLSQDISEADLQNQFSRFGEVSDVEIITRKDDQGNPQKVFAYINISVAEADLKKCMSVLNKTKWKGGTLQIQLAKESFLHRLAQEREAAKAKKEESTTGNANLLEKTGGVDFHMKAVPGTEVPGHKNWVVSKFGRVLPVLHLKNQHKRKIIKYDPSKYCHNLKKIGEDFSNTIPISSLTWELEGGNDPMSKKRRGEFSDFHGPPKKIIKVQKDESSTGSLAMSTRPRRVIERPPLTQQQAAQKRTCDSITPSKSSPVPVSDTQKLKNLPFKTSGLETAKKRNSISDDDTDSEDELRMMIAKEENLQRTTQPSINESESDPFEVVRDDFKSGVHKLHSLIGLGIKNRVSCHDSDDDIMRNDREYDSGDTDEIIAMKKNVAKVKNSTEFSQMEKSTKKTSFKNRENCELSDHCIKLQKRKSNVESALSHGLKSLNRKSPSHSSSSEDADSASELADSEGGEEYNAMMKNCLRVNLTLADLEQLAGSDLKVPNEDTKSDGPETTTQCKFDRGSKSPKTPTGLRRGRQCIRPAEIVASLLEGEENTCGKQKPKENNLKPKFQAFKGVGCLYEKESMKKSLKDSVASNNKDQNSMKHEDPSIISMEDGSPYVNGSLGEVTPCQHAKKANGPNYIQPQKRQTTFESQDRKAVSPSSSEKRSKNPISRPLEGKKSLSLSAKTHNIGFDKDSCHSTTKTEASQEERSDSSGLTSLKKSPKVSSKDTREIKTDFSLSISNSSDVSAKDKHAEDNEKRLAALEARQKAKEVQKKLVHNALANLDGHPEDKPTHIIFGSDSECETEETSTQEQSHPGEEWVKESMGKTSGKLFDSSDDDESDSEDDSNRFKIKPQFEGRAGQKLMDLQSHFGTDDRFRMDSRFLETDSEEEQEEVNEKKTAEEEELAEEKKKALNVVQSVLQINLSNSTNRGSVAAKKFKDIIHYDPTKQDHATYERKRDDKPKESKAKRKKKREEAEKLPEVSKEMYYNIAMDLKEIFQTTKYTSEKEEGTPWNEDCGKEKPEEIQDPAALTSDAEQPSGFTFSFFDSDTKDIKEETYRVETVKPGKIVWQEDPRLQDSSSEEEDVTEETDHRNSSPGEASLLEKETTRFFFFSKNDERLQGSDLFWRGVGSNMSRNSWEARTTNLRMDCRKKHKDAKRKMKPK
UniProt Q15262: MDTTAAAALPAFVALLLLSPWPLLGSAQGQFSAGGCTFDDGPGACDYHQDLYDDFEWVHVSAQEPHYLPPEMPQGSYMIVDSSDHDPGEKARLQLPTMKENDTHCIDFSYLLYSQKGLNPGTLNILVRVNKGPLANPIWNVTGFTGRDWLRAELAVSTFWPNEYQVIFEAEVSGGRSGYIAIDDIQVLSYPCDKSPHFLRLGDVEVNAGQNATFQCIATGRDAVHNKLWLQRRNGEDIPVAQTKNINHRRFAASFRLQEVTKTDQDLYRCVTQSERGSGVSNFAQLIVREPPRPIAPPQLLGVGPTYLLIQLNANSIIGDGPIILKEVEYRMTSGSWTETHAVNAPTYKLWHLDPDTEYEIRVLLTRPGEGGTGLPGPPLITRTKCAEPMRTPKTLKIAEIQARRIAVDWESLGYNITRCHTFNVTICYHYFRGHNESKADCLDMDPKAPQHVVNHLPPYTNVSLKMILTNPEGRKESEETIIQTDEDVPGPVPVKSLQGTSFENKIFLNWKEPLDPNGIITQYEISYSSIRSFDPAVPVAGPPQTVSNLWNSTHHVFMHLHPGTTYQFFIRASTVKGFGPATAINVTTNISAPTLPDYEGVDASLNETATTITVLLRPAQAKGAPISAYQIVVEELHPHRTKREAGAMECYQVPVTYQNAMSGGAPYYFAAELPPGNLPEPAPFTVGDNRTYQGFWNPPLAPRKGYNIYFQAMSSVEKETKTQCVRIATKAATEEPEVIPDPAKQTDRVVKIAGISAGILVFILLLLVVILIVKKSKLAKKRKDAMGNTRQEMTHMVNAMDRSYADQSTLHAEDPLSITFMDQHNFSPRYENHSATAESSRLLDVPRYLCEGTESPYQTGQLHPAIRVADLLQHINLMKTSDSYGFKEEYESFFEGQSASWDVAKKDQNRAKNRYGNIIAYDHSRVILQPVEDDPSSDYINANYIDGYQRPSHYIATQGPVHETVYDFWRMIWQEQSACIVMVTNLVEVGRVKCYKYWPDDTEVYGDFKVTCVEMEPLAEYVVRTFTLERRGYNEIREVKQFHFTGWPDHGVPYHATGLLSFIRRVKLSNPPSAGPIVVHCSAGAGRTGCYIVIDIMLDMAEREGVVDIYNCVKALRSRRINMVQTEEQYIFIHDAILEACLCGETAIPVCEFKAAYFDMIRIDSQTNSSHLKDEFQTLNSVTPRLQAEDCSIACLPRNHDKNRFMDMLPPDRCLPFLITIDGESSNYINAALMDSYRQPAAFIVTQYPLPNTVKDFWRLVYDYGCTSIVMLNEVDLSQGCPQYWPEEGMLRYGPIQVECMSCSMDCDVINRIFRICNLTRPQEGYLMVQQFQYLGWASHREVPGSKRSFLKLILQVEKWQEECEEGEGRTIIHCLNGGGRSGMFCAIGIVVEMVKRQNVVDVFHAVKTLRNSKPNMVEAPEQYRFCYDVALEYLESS
UniProt Q8IXM6: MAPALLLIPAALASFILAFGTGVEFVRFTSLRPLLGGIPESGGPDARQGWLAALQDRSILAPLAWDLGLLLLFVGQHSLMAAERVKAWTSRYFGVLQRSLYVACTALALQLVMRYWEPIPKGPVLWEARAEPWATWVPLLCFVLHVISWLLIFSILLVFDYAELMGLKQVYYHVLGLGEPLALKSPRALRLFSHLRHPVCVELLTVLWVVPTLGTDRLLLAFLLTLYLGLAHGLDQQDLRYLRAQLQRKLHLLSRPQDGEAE
UniProt Q96FJ2, whole entry: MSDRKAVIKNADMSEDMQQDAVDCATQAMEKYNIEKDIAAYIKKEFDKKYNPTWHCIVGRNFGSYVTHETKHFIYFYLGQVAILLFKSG
UniProt Q99943: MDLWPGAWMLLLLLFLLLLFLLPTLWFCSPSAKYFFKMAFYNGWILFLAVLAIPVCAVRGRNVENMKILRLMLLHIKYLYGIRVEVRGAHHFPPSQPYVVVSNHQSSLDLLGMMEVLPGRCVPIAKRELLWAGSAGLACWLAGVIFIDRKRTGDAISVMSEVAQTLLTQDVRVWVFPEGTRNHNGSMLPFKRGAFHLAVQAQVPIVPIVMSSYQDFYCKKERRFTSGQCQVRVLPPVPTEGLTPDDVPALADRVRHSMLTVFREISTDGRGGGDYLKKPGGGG
UniProt O95870: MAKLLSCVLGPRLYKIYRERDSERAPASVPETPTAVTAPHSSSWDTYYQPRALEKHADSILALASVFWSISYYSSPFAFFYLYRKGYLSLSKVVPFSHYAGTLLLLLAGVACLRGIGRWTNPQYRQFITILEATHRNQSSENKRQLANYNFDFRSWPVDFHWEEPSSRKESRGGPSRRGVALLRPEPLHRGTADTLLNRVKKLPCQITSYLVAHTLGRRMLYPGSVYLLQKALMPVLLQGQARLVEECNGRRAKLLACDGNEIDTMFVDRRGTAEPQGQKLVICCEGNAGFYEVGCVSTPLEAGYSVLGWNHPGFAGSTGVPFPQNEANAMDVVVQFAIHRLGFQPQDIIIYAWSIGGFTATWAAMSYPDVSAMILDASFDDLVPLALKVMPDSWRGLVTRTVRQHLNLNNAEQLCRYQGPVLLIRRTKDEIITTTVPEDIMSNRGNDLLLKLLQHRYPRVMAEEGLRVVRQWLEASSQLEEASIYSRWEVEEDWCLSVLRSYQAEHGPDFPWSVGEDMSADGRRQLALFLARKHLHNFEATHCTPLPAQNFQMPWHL
UniProt P15090: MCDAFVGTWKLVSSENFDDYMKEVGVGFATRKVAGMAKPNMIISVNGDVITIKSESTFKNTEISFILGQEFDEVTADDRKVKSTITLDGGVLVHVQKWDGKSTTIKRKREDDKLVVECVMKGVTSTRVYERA
UniProt O14908: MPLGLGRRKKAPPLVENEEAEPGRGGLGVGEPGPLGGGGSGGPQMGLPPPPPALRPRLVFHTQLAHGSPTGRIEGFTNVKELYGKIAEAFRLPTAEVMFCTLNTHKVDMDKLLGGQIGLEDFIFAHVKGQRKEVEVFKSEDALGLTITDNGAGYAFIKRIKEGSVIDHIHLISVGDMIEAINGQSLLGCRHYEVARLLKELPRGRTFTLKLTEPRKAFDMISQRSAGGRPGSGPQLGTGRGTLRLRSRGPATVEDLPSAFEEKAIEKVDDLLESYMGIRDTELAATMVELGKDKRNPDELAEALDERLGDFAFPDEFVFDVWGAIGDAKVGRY

[1] = system: intact DAOY cells, treatment time: 90 min, 37 °C
[2] = system: DAOY cell lysate, treatment time: 20 min, 4 °C

Target | melting temperature shift [1] | melting temperature shift [2]
UniProt Q9P0S3 | -0.423 °C | –
UniProt P60059 | 0.436 °C | 1.71 °C
UACA (UniProt Q9BZF9) | 0.513 °C | -0.207 °C
A0A2R8Y619, A0A2R8Y619 | -0.362 °C | –
EHMT2 (UniProt Q96KQ7) | 1.25 °C | -0.576 °C
FLNC (UniProt Q14315) | 0.137 °C | -1.16 °C
MED27 (UniProt Q6P2C8) | 0.0589 °C | -0.0662 °C
UniProt Q9BVG4 | 0.837 °C | -0.917 °C
FRG1 (UniProt Q14331) | – | -0.601 °C
C1ORF198 (UniProt Q9H425) | 1.12 °C | –
TRIP12 (UniProt Q14669) | 0.898 °C | -0.611 °C
DCTPP1 (UniProt Q9H773) | 0.79 °C | -2.36 °C
UniProt P00480 | – | 1.12 °C
ASCC3 (UniProt Q8N3C0) | 0.209 °C | -0.996 °C
SLC12A2 (UniProt P55011) | -1.75 °C | 0.898 °C
UniProt Q76FK4 | – | 0.821 °C
CST3 (UniProt P01034) | – | 3.46 °C
MCM2 (UniProt P49736) | -1.16 °C | -0.397 °C
IQGAP2 (UniProt Q13576) | -0.876 °C | –
UniProt Q9C0A1 | -1.46 °C | –
PTPRK (UniProt Q15262) | 1.57 °C | -1.82 °C
IRF2BP1 (UniProt Q8IU81) | 0.249 °C | -0.602 °C
UniProt Q8IXM6 | – | -0.455 °C
DYNLL2 (UniProt Q96FJ2) | – | -1.4 °C

Target | melting temperature shift [1] | melting temperature shift [2]
PSMC6 (UniProt P62333) | -0.925 °C | -0.111 °C
PSMD2 (UniProt Q13200) | -1.13 °C | -0.616 °C
UniProt Q9BUP0 | -0.881 °C | –
VWA9 (UniProt Q96SY0) | -0.614 °C | -0.0135 °C
PAIP2 (UniProt Q9BPZ3) | -0.756 °C | -1.83 °C
UniProt Q9UGH3 | 7.2 °C | –
ALDH4A1 (UniProt P30038) | -1.53 °C | -0.351 °C
UniProt Q8WZ73 | – | -1.42 °C
CSTF1 (UniProt Q05048) | 0.492 °C | -0.0219 °C
UniProt Q9NZ42 | – | 6.01 °C
UniProt Q9HA92 | – | 2.06 °C
UniProt O14576 | – | -1.85 °C
ACO1 (UniProt P21399) | -0.317 °C | -0.309 °C
AGPAT1 (UniProt Q99943) | 1.48 °C | 0.962 °C
DDX28 (UniProt Q9NUL7) | – | 4.68 °C
TMEM186 (UniProt Q96B77) | -0.938 °C | –
UniProt Q5U5Q3 | – | 3.83 °C
UniProt Q9NYV4 | -0.16 °C | -0.611 °C
SHKBP1 (UniProt Q8TBC3) | – | 1.36 °C
COQ6 (UniProt Q9Y2Z9) | 0.11 °C | 0.236 °C
HNRNPH1 (UniProt P31943) | -0.621 °C | 0.424 °C
UniProt Q15113 | 0.339 °C | 0.933 °C
WDR61 (UniProt Q9GZS3) | 1.3 °C | -0.121 °C
UniProt Q6P1J6 | – | -0.0148 °C

Target | melting temperature shift [1] | melting temperature shift [2]
INPP5F (UniProt Q9Y2H2) | – | -0.846 °C
UniProt Q01543 | 2.1 °C | –
ATP5L (UniProt O75964) | -2.93 °C | 0.177 °C
UniProt Q9BSW2 | 0.768 °C | 1.08 °C
LIMD1 (UniProt Q9UGP4) | – | -0.0735 °C
ABHD16A (UniProt O95870) | -0.561 °C | 3.21 °C
EXOSC4 (UniProt Q9NPD3) | -2.15 °C | -0.966 °C
UniProt P84243 | 0.637 °C | –
LOXL2 (UniProt Q9Y4K0) | -0.0117 °C | -1.97 °C
SPTLC2 (UniProt O15270) | -0.152 °C | 1.78 °C
KIF13A (UniProt Q9H1H9) | -1.37 °C | –
IDI1 (UniProt Q13907) | -0.92 °C | -1.55 °C
TRA2B (UniProt P62995) | 0.844 °C | 0.962 °C
UniProt Q86VZ5 | -3.26 °C | –
P0DPI3, A0A0U1RR11 | -0.554 °C | –
PIK3CD (UniProt O00329) | 1.17 °C | 2.35 °C
XAB2 (UniProt Q9HCS7) | 0.0102 °C | -1.22 °C
UniProt P15090 | -0.195 °C | -1.28 °C
FAM175B (UniProt Q15018) | -0.198 °C | -1.37 °C
PSMD7 (UniProt P51665) | -1.54 °C | -1.24 °C
CAP2 (UniProt P40123) | 0.26 °C | -0.48 °C
NAA35 (UniProt Q5VZE5) | -0.764 °C | 0.956 °C
R3HDM1 (UniProt Q15032) | – | -0.12 °C
UniProt Q8IYL2 | – | 2.31 °C

Target | melting temperature shift [1] | melting temperature shift [2]
STX7 (UniProt O15400) | – | 1.57 °C
ALDH1B1 (UniProt P30837) | -0.808 °C | -0.409 °C
UniProt Q6PL24 | 0.0139 °C | 0.16 °C
UniProt Q9NPH0 | – | -3.51 °C
UniProt Q9H649 | – | -2.55 °C
GOLGA4 (UniProt Q13439) | -0.00738 °C | -0.229 °C
RHEB (UniProt Q15382) | -1.45 °C | 0.0421 °C
FAM98B (UniProt Q52LJ0) | -0.454 °C | -1.17 °C
UniProt Q96QV6 | 2.66 °C | –
UniProt Q9Y2B0 | 0.597 °C | -1.57 °C
ANKRD28 (UniProt O15084) | 0.709 °C | 0.0916 °C
CCNH (UniProt P51946) | -0.921 °C | -0.807 °C
UniProt Q13015 | – | -0.149 °C
SSSCA1 (UniProt O60232) | 2.02 °C | -0.217 °C
UniProt Q96G61 | 0.578 °C | -1.1 °C
PAXBP1 (UniProt Q9Y5B6) | -0.00835 °C | -0.0923 °C
LRRC47 (UniProt Q8N1G4) | 0.206 °C | -0.167 °C
UniProt Q5VWI1 | -0.17 °C | –
NPEPL1 (UniProt Q8NDH3) | -0.91 °C | -0.664 °C
AHNAK2 (UniProt Q8IVF2) | 0.157 °C | 0.889 °C
RMDN3 (UniProt Q96TC7) | 1.98 °C | 1.11 °C
IFT74 (UniProt Q96LB3) | – | 1.61 °C
MRPL23 (UniProt Q16540) | 0.492 °C | -2.36 °C
PAXIP1 (UniProt Q6ZW49) | – | 0.526 °C

As a working copy, some entries already given:
Target | melting temperature shift [1] | melting temperature shift [2]
UniProt Q9NZ42 | – | 6.01 °C
UniProt Q9HA92 | – | 2.06 °C
UniProt O14576 | – | -1.85 °C
ACO1 (UniProt P21399) | -0.317 °C | -0.309 °C
AGPAT1 (UniProt Q99943) | 1.48 °C | 0.962 °C
DDX28 (UniProt Q9NUL7) | – | 4.68 °C
TMEM186 (UniProt Q96B77) | -0.938 °C | –
UniProt Q5U5Q3 | – | 3.83 °C
UniProt Q9NYV4 | -0.16 °C | -0.611 °C
SHKBP1 (UniProt Q8TBC3) | – | 1.36 °C
COQ6 (UniProt Q9Y2Z9) | 0.11 °C | 0.236 °C
HNRNPH1 (UniProt P31943) | -0.621 °C | 0.424 °C
UniProt Q15113 | 0.339 °C | 0.933 °C
WDR61 (UniProt Q9GZS3) | 1.3 °C | -0.121 °C
UniProt Q6P1J6 | – | -0.0148 °C
INPP5F (UniProt Q9Y2H2) | – | -0.846 °C
UniProt Q01543 | 2.1 °C | –
ATP5L (UniProt O75964) | -2.93 °C | 0.177 °C
UniProt Q9BSW2 | 0.768 °C | 1.08 °C
LIMD1 (UniProt Q9UGP4) | – | -0.0735 °C
ABHD16A (UniProt O95870) | -0.561 °C | 3.21 °C
EXOSC4 (UniProt Q9NPD3) | -2.15 °C | -0.966 °C
UniProt P84243 | 0.637 °C | –
LOXL2 (UniProt Q9Y4K0) | -0.0117 °C | -1.97 °C
SPTLC2 (UniProt O15270) | -0.152 °C | 1.78 °C
KIF13A (UniProt Q9H1H9) | -1.37 °C | –
IDI1 (UniProt Q13907) | -0.92 °C | -1.55 °C
TRA2B (UniProt P62995) | 0.844 °C | 0.962 °C
UniProt Q86VZ5 | -3.26 °C | –
P0DPI3, A0A0U1RR11 | -0.554 °C | –
PIK3CD (UniProt O00329) | 1.17 °C | 2.35 °C

Remaining list, next part:

Target | melting temperature shift [1] | melting temperature shift [2]
UniProt Q13427 | -0.845 °C | 0.972 °C
EED (UniProt O75530) | 0.0224 °C | 0.508 °C
GNAI3 (UniProt P08754) | -0.189 °C | 0.822 °C
ACAD9 (UniProt Q9H845) | -0.422 °C | 1.04 °C
UBAP1 (UniProt Q9NZ09) | -0.997 °C | -0.91 °C
EPHB4 (UniProt P54760) | -0.813 °C | 0.485 °C
TRIM24 (UniProt O15164) | – | -0.504 °C
LMNB1 (UniProt P20700) | 1.64 °C | –
LBR (UniProt Q14739) | -3.02 °C | 0.808 °C
LARP7 (UniProt Q4G0J3) | -0.435 °C | -0.056 °C
KIAA1033 (UniProt Q2M389) | 0.212 °C | -1.14 °C
UniProt Q8N130 | – | 2.12 °C
UniProt A6NCE7 | -0.00167 °C | –
UniProt Q9BUB4 | – | -2.47 °C
PPFIBP1 (UniProt Q86W92) | 0.891 °C | -0.317 °C
SRP72 (UniProt O76094) | -0.877 °C | -0.272 °C
MP68 (UniProt P56378) | 0.303 °C | 1.01 °C
RYBP (UniProt Q8N488) | – | 1.4 °C
SRSF5 (UniProt Q13243) | – | 0.289 °C
GIPC1 (UniProt O14908) | 0.634 °C | 0.53 °C
RAD23B (UniProt P54727) | – | -2.88 °C
UniProt A8MTL0 | – | 1.58 °C
UniProt O15504 | – | -0.823 °C

From the supplement of paper PMC10060354, “Discovery of a small molecule ligand of FRS2 that inhibits invasion and tumor growth” (Cellular Oncology, 2022)
